# Assay results reported in PubChem BioAssay AID1671190 (National Center for Advancing Translational Sciences (NCATS), 2021).
# Sequences of proteins named here, by UniProt entry; tags and fusion partners are left off. A change or cut given only in a name is not applied to a line headed by its entry.
# UniProt P18054: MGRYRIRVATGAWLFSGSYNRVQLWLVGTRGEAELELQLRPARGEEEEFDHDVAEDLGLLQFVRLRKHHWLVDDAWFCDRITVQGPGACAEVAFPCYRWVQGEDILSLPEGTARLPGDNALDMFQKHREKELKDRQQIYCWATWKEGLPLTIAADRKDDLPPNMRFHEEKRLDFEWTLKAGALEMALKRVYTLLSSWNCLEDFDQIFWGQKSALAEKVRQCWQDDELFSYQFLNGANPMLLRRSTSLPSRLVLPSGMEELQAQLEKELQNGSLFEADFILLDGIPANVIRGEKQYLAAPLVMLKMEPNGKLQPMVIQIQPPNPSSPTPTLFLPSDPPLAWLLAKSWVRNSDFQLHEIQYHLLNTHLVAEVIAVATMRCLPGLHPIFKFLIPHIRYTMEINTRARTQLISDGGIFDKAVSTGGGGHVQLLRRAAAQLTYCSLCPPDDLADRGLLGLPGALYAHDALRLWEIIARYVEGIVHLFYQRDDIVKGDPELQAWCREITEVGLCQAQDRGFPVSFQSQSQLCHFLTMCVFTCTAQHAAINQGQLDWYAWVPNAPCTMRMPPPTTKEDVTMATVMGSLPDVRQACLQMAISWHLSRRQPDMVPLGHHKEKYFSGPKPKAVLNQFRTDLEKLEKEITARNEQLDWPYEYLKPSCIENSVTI
# Values joined by “and” are separate entries in the source; they are usually repeats but may differ in a detail not shown here. Identical values can stand only once. In all, about 580,000 compounds went through this assay and about 6,100 (1.1%) were called active. The shares of active, inactive and inconclusive entries below differ from those in the screen. Calls follow the shape of the dose curve; as a rule, active = well fitted inhibition curve with a large enough effect; inconclusive = small, poorly fitted or top-dose-only effect, or another doubt; inactive = no such curve, though single readings can be large or run the other way. Where the call is inconclusive, the potency comes from a doubtful curve fit.
# Target: Polyunsaturated fatty acid lipoxygenase ALOX12 (Homo sapiens) (UniProt P18054)
# Assay: Primary qHTS assay for inhibitors of human arachidonate 12S-lipoxygenase (ALOX12): Round 2
# Conditions: purified 12hLO, xylenol orange hydroperoxide absorbance; activity change, negative = inhibition: at 108 µM (top of the series) unless noted
# In short: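 Purified human 12hLO at 150 nM in 25 mM Hepes, 0.01% Triton X-100, pH 7.0, preincubated 15 min at room temperature with compound. Reaction started with 40 uM arachidonic acid, 30 min at room temperature. Hydroperoxide measured by Fe-xylenol orange, 573/405 nm absorbance ratio.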
# % is scaled to controls: 0 for no effect and ±100 for the full control effect; potency is read from the fitted curve at half-maximal effect.
SMILES,Potency,"activity change, negative = inhibition"
CCOC(=O)c1noc2nc(C)n(CC(=O)Nc3cccc(OC)c3)c(=O)c12,"inconclusive: 141 µM [inhibitor, partial curve, poor fit]",
O=C(CSc1nc2ccccc2c(=O)n1CCc1cccs1)N1CCCCC1,"inconclusive: 28.2 µM [inhibitor, full curve, poor fit]",
NC(CCc1ccccc1)c1csc(NC(=O)Nc2ccccc2Oc2ccccc2)n1 (stereo unspecified),"inconclusive: 44.7 µM [inhibitor, partial curve, poor fit]",
COc1cc2c(cc1OC)CN(CC(=O)Nc1cc(C)cc(C)c1)CC2,"inconclusive: 11.2 µM [inhibitor, full curve, poor fit]",
Cc1cn2nc(-c3nc(C4CCCN(C(=O)c5ccc(C)c(F)c5)C4)no3)cc2c(=O)[nH]1 (stereo unspecified),,inactive: 53.1%
CCCCc1n[nH]c(=S)n1Cc1ccc(C)cc1,"inconclusive: 44.7 µM [inhibitor, partial curve, poor fit]",
Cc1c(CN2CCC3(CCNCC3)C2)c(=O)n(-c2ccccc2)n1C,"inconclusive: 15.8 µM [inhibitor, full curve]",
COc1ccc(-n2c(SCC(=O)Nc3nccs3)nc3c(c2=O)SCC3)cc1,"inconclusive: 89.1 µM [inhibitor, single point]",
O=C(CN1C(=O)C2CCc3[nH]c4ccccc4c3C2C1=O)N1CCCC1 (stereo unspecified),"inconclusive: 50.1 µM [inhibitor, partial curve, poor fit]",
CCCS(=O)(=O)N1CCc2ccc(NC(=O)NC)cc21,,inactive: -9.43%
O=C1c2ccccc2C(=O)N1CCCCc1cn(C[C@H]2CC[C@H](Cn3cc(CCCCN4C(=O)c5ccccc5C4=O)nn3)O2)nn1,,inactive: -6.43%
CC(=O)c1c(C)[nH]c(-c2csc(CC(=O)Nc3ccc(C)cc3)n2)c1C,"inconclusive: 35.5 µM [inhibitor, partial curve, poor fit]",
COCCn1c(=S)[nH]c2sc3c(c2c1=O)CCC(C)C3 (stereo unspecified),"inconclusive: 63.1 µM [inhibitor, partial curve, poor fit]",
CCn1cc(/C=C(\NC(=O)c2ccc(OC)c(OC)c2)C(=O)N2CCOCC2)c2ccccc21,"inconclusive: 126 µM [inhibitor, partial curve, poor fit] and inconclusive: 44.7 µM [inhibitor, partial curve, poor fit]",
Cc1ccc(N(C)C(=O)c2sc3nc4n(c(=O)c3c2C)CCCC4)cc1C,,inactive: 4.87%
Cc1cc(NC(=O)C2CC2)sc1C(=O)NC(C)c1ccccc1Br (stereo unspecified),"inconclusive: 50.1 µM [inhibitor, partial curve, poor fit]",
